Measurements reported in PubChem BioAssay AID1259254 (NCATS, 2017).
The whole screen tested about 59,000 reagents; below is a random part of them. Of all reagents, about 1,550 (2.6%) are marked active. 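G2 share is only a proxy for re-replication; each gene was hit by three separate siRNAs, and active genes were retested.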 The numbers tell different reagents against one gene apart. Not all columns of the deposit are shown. Reagent sequences are not shown. Not given: the amount of reagent.

Test: 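Finding genes that stop cells copying their DNA twice in one cycle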 (primary screen)
System: human HCT116 colorectal cancer cells
Reagent: single siRNA against human genes
Time to read-out: 3 days
Measured: 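Imaged Hoechst DNA stain sorts each cell into a cycle phase by DNA amount; per plate, G2 fraction set to 0% for non-targeting and 100% for GMNN siRNA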
Reading the numbers: G2 robust z-score: higher = more G2 cells, more excess DNA replication
Call rule: 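An siRNA counts as active if its G2 robust z-score lies at least 5 MADs above the screen median; here such calls match roughly 38% of GMNN control or more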

target gene	reagent	G2 robust z-score	Call
ARPC3 (actin related protein 2/3 complex subunit 3)	1	0.119	inactive
ARPC3 (actin related protein 2/3 complex subunit 3)	2	0.628	inactive
ARPC3 (actin related protein 2/3 complex subunit 3)	3	2.46	inactive
ST3GAL3 (ST3 beta-galactoside alpha-2,3-sialyltransferase 3)	1	-0.0292	inactive
ST3GAL3 (ST3 beta-galactoside alpha-2,3-sialyltransferase 3)	2	1.64	inactive
ST3GAL3 (ST3 beta-galactoside alpha-2,3-sialyltransferase 3)	3	2.02	inactive
PRKAB2 (protein kinase AMP-activated non-catalytic subunit beta 2)	1	-0.261	inactive
PRKAB2 (protein kinase AMP-activated non-catalytic subunit beta 2)	2	-0.14	inactive
PRKAB2 (protein kinase AMP-activated non-catalytic subunit beta 2)	3	-0.465	inactive
SLC22A9	1	-0.802	inactive
SLC22A9	2	0.249	inactive
SLC22A9	3	1.95	inactive
SCO1 (synthesis of cytochrome C oxidase 1)	1	-0.285	inactive
SCO1 (synthesis of cytochrome C oxidase 1)	2	-0.198	inactive
SCO1 (synthesis of cytochrome C oxidase 1)	3	-0.298	inactive
ARHGEF5 (Rho guanine nucleotide exchange factor 5)	1	1.21	inactive
ARHGEF5 (Rho guanine nucleotide exchange factor 5)	2	1.12	inactive
ARHGEF5 (Rho guanine nucleotide exchange factor 5)	3	-0.968	inactive

Targets listed so far whose target name starts with P or p:
target gene	reagent	G2 robust z-score	Call
PRKAB2 (protein kinase AMP-activated non-catalytic subunit beta 2)	1	-0.261	inactive
PRKAB2 (protein kinase AMP-activated non-catalytic subunit beta 2)	2	-0.14	inactive
PRKAB2 (protein kinase AMP-activated non-catalytic subunit beta 2)	3	-0.465	inactive

Additional results follow.
target gene	reagent	G2 robust z-score	Call
PCDHA2 (protocadherin alpha 2)	1	-1.07	inactive
PCDHA2 (protocadherin alpha 2)	2	-0.848	inactive
PCDHA2 (protocadherin alpha 2)	3	1.54	inactive
ACBD3 (acyl-CoA binding domain containing 3)	1	1.65	inactive
ACBD3 (acyl-CoA binding domain containing 3)	2	0.542	inactive
ACBD3 (acyl-CoA binding domain containing 3)	3	0.0665	inactive
TEC (tec protein tyrosine kinase)	1	2.07	inactive
TEC (tec protein tyrosine kinase)	2	0.414	inactive
TEC (tec protein tyrosine kinase)	3	-0.136	inactive
NHEJ1 (non-homologous end joining factor 1)	1	-0.997	inactive
NHEJ1 (non-homologous end joining factor 1)	2	4.44	inactive
NHEJ1 (non-homologous end joining factor 1)	3	-0.497	inactive
